Assay results taken from PMC10201364 (MicrobiologyOpen, 2023).

System: T1, Ah-BarR WT (Acidianus hospitalis)
T1 sequence (looked up, limits assumed): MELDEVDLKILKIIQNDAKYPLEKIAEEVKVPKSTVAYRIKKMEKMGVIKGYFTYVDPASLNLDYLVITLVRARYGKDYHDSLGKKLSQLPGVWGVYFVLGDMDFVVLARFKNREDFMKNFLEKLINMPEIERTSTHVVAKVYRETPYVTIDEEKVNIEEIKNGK
Assay: EMSA
Settings: 20 mM Tris-HCl pH 8.0, 50 mM NaCl, 0.4 mM EDTA, 0.1 mM DTT, 1 mM MgCl2, 12.5% glycerol, 25 ug/mL salmon sperm DNA, 25 min at 37 C (EMSA), recombinant protein, protein details: C-terminal His, label: 32P 5' end (bottom strand in footprinting), probe letters rebuilt from the primers and the genome

CCTTATACATTTTATCGACGAATAAGTTGAATATACAACTAAATAAAAAGGGATTATCTTGGAAATTATACAGAGACATTCCAAAGCAAGATTTAAACTATTGTACTTTTTACAATAGCTGTCCTAAAATACTTAAATTCCGTCTAAACTACTAGTATCGCATGGATG (double strand) [WT promoter short 168 bp]
binding result (5 mM beta-alanine, complexes unstable during electrophoresis): binds | binding result (no beta-alanine): binds

Construct, isoform or probe ends are uncertain for at least one entry. At least one verdict rests on a figure or table, not on a statement of the authors. Where a protein sequence is shown, tags need not be part of it.
